According to article PMC4871572:
No constants are given. Whether binding was seen depends on the method and setting.

Legend:
Test in all cases: two-hybrid; yeast two-hybrid assays; bait and prey orientation and constructs not told
CCCP-1 (C. elegans) = target: CCCP-1 (C. elegans)
RAB-2 (C. elegans) = target: RAB-2 (C. elegans)
RUND-1 (C. elegans) = target: RUND-1 (C. elegans)

Measured: binding

B1: EIPR-1 (protein, UniProt Q9U1Q0 1-362)
chain: MSECLMFGMDCEARCMTSMTADEENICFLVGTNNIKNDKNQVNKLFMDPEASRLMSKTFRHPAGEVRAIAAHPTKSTILATCTADFSSLGGTHSITIWNIEEDKRTLETVSRLPTEQVMSCLEWEPNSMKCAAMTPFRPEIQLLNMENGPEIVQNLKIPLENEEDEMFSATWSPHHDGNMLGVTGGRTAWCIDCRTDNEYLKIRDAHIHRTISMDFNPNLQHVIATCGDDGYVRIWDTRSTSSALTSLHPHAHWVWSVRFHPVHDQLLLTGGSDASVVLSCAQSVSSEQQIEFRDDEEEEEDDDLVEKLQDGQLERIDEHEDSVYACAWSSADPWTFASLSYDGRMIVSNVSRKHKYALMQL
no binding: CCCP-1 (C. elegans) | RAB-2 (C. elegans) | RUND-1 (C. elegans)
